From the supplement of paper PMC7661543
Differences between knockout arms are mostly noise.

Test system: MDA-MB-231
Assay: relative cell number vs DMSO control (72 h) (% of DMSO); higher = less growth inhibition (more cells)
Experimental: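 QMAP-Seq: a pool of 5 breast cancer cell lines (ZR-75-1, SKBR3, HCC-38, MDA-MB-231, BT-20), each carrying 12 doxycycline-inducible Cas9 sgRNA perturbations (11 knockouts plus non-targeting sgNT), was treated with compounds for 72 h at four 10-fold doses (10 nM-10 uM or 1 nM-1 uM range). Barcodes were amplified and sequenced, and cell number was interpolated from 293T spike-in standard curves. The result is expressed as % of the median of DMSO wells. Two biological replicates.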

Cn1c(CCCC(=O)O)nc2cc(N(CCCl)CCCl)ccc21 [Bendamustine]
Conditions | relative cell number
sgRNA knockout: sgATF3, 10 nM | 116
sgRNA knockout: sgATF3, 100 nM | 117
sgRNA knockout: sgATF3, 1000 nM | 111
sgRNA knockout: sgATF3, 10000 nM | 139
sgRNA knockout: sgATF4, 10 nM | 116
sgRNA knockout: sgATF4, 100 nM | 167
sgRNA knockout: sgATF4, 1000 nM | 137
sgRNA knockout: sgATF4, 10000 nM | 206
sgRNA knockout: sgATF6, 10 nM | 106
sgRNA knockout: sgATF6, 100 nM | 110
sgRNA knockout: sgATF6, 1000 nM | 100
sgRNA knockout: sgATF6, 10000 nM | 141
sgRNA knockout: sgATG7, 10 nM | 93.4
sgRNA knockout: sgATG7, 100 nM | 117
sgRNA knockout: sgATG7, 1000 nM | 125
sgRNA knockout: sgATG7, 10000 nM | 140
sgRNA knockout: sgERN1, 10 nM | 80.6
sgRNA knockout: sgERN1, 100 nM | 112
sgRNA knockout: sgERN1, 1000 nM | 111
sgRNA knockout: sgERN1, 10000 nM | 132
sgRNA knockout: sgHSF1, 10 nM | 107
sgRNA knockout: sgHSF1, 100 nM | 95.1
sgRNA knockout: sgHSF1, 1000 nM | 105
sgRNA knockout: sgHSF1, 10000 nM | 134
sgRNA knockout: sgHSF2, 10 nM | 124
sgRNA knockout: sgHSF2, 100 nM | 103
sgRNA knockout: sgHSF2, 1000 nM | 109
sgRNA knockout: sgHSF2, 10000 nM | 124
sgRNA knockout: sgKEAP1, 10 nM | 101
sgRNA knockout: sgKEAP1, 100 nM | 107
sgRNA knockout: sgKEAP1, 1000 nM | 98.8
sgRNA knockout: sgKEAP1, 10000 nM | 126
sgRNA knockout: sgNFE2L2, 10 nM | 119
sgRNA knockout: sgNFE2L2, 100 nM | 105
sgRNA knockout: sgNFE2L2, 1000 nM | 95.5
sgRNA knockout: sgNFE2L2, 10000 nM | 134
sgRNA knockout: sgSLC35F2, 10 nM | 121
sgRNA knockout: sgSLC35F2, 100 nM | 110
sgRNA knockout: sgSLC35F2, 1000 nM | 96.4
sgRNA knockout: sgSLC35F2, 10000 nM | 113
sgRNA knockout: sgXBP1, 10 nM | 99.5
sgRNA knockout: sgXBP1, 100 nM | 113
sgRNA knockout: sgXBP1, 1000 nM | 118
sgRNA knockout: sgXBP1, 10000 nM | 123

C=C(C)[C@@H]1CC[C@]2(C(=O)O)CC[C@]3(C)[C@H](CC[C@@H]4[C@@]5(C)CC[C@H](O)C(C)(C)[C@@H]5CC[C@]43C)[C@@H]12 [BetulinicAcid]
Conditions | relative cell number
sgRNA knockout: sgATF3, 10 nM | 97.4
sgRNA knockout: sgATF3, 100 nM | 102
sgRNA knockout: sgATF3, 1000 nM | 101
sgRNA knockout: sgATF3, 10000 nM | 108
sgRNA knockout: sgATF4, 10 nM | 78.8
sgRNA knockout: sgATF4, 100 nM | 84.6
sgRNA knockout: sgATF4, 1000 nM | 96
sgRNA knockout: sgATF4, 10000 nM | 96.6
sgRNA knockout: sgATF6, 10 nM | 91.4
sgRNA knockout: sgATF6, 100 nM | 88.3
sgRNA knockout: sgATF6, 1000 nM | 114
sgRNA knockout: sgATF6, 10000 nM | 113
sgRNA knockout: sgATG7, 10 nM | 100
sgRNA knockout: sgATG7, 100 nM | 105
sgRNA knockout: sgATG7, 1000 nM | 72.6
sgRNA knockout: sgATG7, 10000 nM | 110.5
sgRNA knockout: sgERN1, 10 nM | 121
sgRNA knockout: sgERN1, 100 nM | 97.8
sgRNA knockout: sgERN1, 1000 nM | 89.9
sgRNA knockout: sgERN1, 10000 nM | 102
sgRNA knockout: sgHSF1, 10 nM | 82.3
sgRNA knockout: sgHSF1, 100 nM | 90.4
sgRNA knockout: sgHSF1, 1000 nM | 78.8
sgRNA knockout: sgHSF1, 10000 nM | 108
sgRNA knockout: sgHSF2, 10 nM | 91.4
sgRNA knockout: sgHSF2, 100 nM | 83.5
sgRNA knockout: sgHSF2, 1000 nM | 88
sgRNA knockout: sgHSF2, 10000 nM | 101
sgRNA knockout: sgKEAP1, 10 nM | 117
sgRNA knockout: sgKEAP1, 100 nM | 94
sgRNA knockout: sgKEAP1, 1000 nM | 78.1
sgRNA knockout: sgKEAP1, 10000 nM | 109
sgRNA knockout: sgNFE2L2, 10 nM | 81.5
sgRNA knockout: sgNFE2L2, 100 nM | 93.4
sgRNA knockout: sgNFE2L2, 1000 nM | 97.5
sgRNA knockout: sgNFE2L2, 10000 nM | 104
sgRNA knockout: sgSLC35F2, 10 nM | 103
sgRNA knockout: sgSLC35F2, 100 nM | 98.7
sgRNA knockout: sgSLC35F2, 1000 nM | 106
sgRNA knockout: sgSLC35F2, 10000 nM | 97.5
sgRNA knockout: sgXBP1, 10 nM | 106
sgRNA knockout: sgXBP1, 100 nM | 95.4
sgRNA knockout: sgXBP1, 1000 nM | 108
sgRNA knockout: sgXBP1, 10000 nM | 110

C=C(c1ccc(C(=O)O)cc1)c1cc2c(cc1C)C(C)(C)CCC2(C)C [Bexarotene]
Conditions | relative cell number
sgRNA knockout: sgATF3, 10 nM | 112
sgRNA knockout: sgATF3, 100 nM | 81.4
sgRNA knockout: sgATF3, 1000 nM | 81.7
sgRNA knockout: sgATF3, 10000 nM | 117.4
sgRNA knockout: sgATF4, 10 nM | 102
sgRNA knockout: sgATF4, 100 nM | 97.6
sgRNA knockout: sgATF4, 1000 nM | 96.5
sgRNA knockout: sgATF4, 10000 nM | 76.1
sgRNA knockout: sgATF6, 10 nM | 92.7
sgRNA knockout: sgATF6, 100 nM | 95.8
sgRNA knockout: sgATF6, 1000 nM | 65.3
sgRNA knockout: sgATF6, 10000 nM | 79.2
sgRNA knockout: sgATG7, 10 nM | 88.2
sgRNA knockout: sgATG7, 100 nM | 96.1
sgRNA knockout: sgATG7, 1000 nM | 90.3
sgRNA knockout: sgATG7, 10000 nM | 96.2
sgRNA knockout: sgERN1, 10 nM | 102
sgRNA knockout: sgERN1, 100 nM | 84.3
sgRNA knockout: sgERN1, 1000 nM | 109
sgRNA knockout: sgERN1, 10000 nM | 103
sgRNA knockout: sgHSF1, 10 nM | 103
sgRNA knockout: sgHSF1, 100 nM | 101
sgRNA knockout: sgHSF1, 1000 nM | 97.57
sgRNA knockout: sgHSF1, 10000 nM | 86
sgRNA knockout: sgHSF2, 10 nM | 97.2
sgRNA knockout: sgHSF2, 100 nM | 80.4
sgRNA knockout: sgHSF2, 1000 nM | 102
sgRNA knockout: sgHSF2, 10000 nM | 75.7
sgRNA knockout: sgKEAP1, 10 nM | 99.8
sgRNA knockout: sgKEAP1, 100 nM | 91.4
sgRNA knockout: sgKEAP1, 1000 nM | 97.6
sgRNA knockout: sgKEAP1, 10000 nM | 86.7
sgRNA knockout: sgNFE2L2, 10 nM | 88.9
sgRNA knockout: sgNFE2L2, 100 nM | 111
sgRNA knockout: sgNFE2L2, 1000 nM | 89.4
sgRNA knockout: sgNFE2L2, 10000 nM | 110
sgRNA knockout: sgSLC35F2, 10 nM | 103
sgRNA knockout: sgSLC35F2, 100 nM | 89.3
sgRNA knockout: sgSLC35F2, 1000 nM | 102
sgRNA knockout: sgSLC35F2, 10000 nM | 107
sgRNA knockout: sgXBP1, 10 nM | 92
sgRNA knockout: sgXBP1, 100 nM | 77.8
sgRNA knockout: sgXBP1, 1000 nM | 98.2
sgRNA knockout: sgXBP1, 10000 nM | 78.5
